Measurements as given in PubChem BioAssay AID1508600 (Functional Genomics Laboratory (NCATS/FGL), 2020).
Hit rate of the full screen: of about 53,000 sequences, about 3,700 (7%) were called active.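 Rule for the calls: active = gene knockdowns whose robust z-score for IL-1 alpha signal is at least 2 or at most -2, so actives lie on both sides; inactive = the rest.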 The list shows a part of the results.

assay: Components of the Cytosolic LPS Sensing Pathway: Gene Identification via Genome-wide siRNA Screen; details: RAW264.7 macrophages, IL-1a HTRF, actives lie on both sides, screened at 100 nM (by protocol), cells primed 5 h with Pam3CSK4 first;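 note: robust z of the log signal after scaling to non-targeting control siRNA wells of the plate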
Procedure, shortened: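 Read-out: IL-1a HTRF on supernatant, divided by plate negative-control median ×100, log-transformed and converted to robust z-score. Cells were RAW264.7 given 100 nM siRNA, Pam3CSK4-primed 5 hours, then LipidA-transfected 24 hour.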

z-score, inactive:
GCAAUACGUUUGUGCAGAATT against Cacna1g 0.993
CCUUCAGACUGUCAACAAUTT against Chrm2 -0.386
GGAAGUCAAAAGUGAUUAGTT against Zbtb48 -0.0306
GGAAAUGAAGCAGACUGUGTT against Htr2b -0.69
GCCGGGCAAUGAAUUUACUTT against Ms4a5 0.419
GCCUGACUACUGAAGCUUGTT against Tma16 -0.819
GGUGUACAUGGACAUCAAGTT against Ppie 0.0171
GCUUCCAUAGGUUUAACUUTT against Efhb -0.517
GGCCAACUGGUAUUUCUUGTT against Acadm -1.18
GGCAGAUAGACAACUUUCUTT against Olfr92 -1.66
GGGAUUGAGAUCCUCAUACTT against Olfr1179 0.125
GCUCCAAUAGCGUAUAUUATT against Pigt -0.75
GGAAAACCAAGACCACAAATT against Hmgn5 1.39
GGACAAUGAAGAUUUGGAATT against Ush2a -0.669
GGAGACAGCUCAAAAAGAATT against Clp1 -0.921
CCAAGAAGCUCCCACGAUATT against Gm839 0.395
GGGCUCCUCAAUCACAAAUTT against Slc27a5 -0.2
CCAGAUAUGCACAUGAUAUTT against Spata33 -0.314
CCACAUUCAGCCAAUGAAGTT against Olfr195 -1.25
GGUGUAUGAACAGCUCUAUTT against Lin7b 1.09
GGGCAAGACUGUUUCUGUGTT against 9830107B12Rik -0.471
GGUCAUAGCUUAGAAGGUGTT against Rhov -0.233
CCCAGGUGAGACCUUUACCTT against Fndc3b -1.76
GGGCUAUGCCUACUACACUTT against Fn3k 0.976
UUAUAGAAACGACAAGACUTT against Tmem126b -0.518
GCAGAAGCUAUAUAGCAAGTT against Gpat4 -1.3
GGCCAUCGUCUUGAAGAAGTT against Cdca5 0.661
GGACCAACGUGCAGAAAUGTT against Metrn -0.702
GGAGUGAUAGUCAUCAAUGTT against Olfr357 -0.464

A stretch of the results above, for reference:
z-score, inactive:
GCUCCAAUAGCGUAUAUUATT against Pigt -0.75
GGAAAACCAAGACCACAAATT against Hmgn5 1.39
